Some results were stated once for a whole list of compounds, not compound by compound.
Assay: Water sorption analysis / DVS (hygroscopicity)
Type: physicochemical
Method: Water sorption analysis. About 5-6 mg of powder sample was placed in the sample pan of an automated water sorption analyzer (Q5000SA, TA instruments, New Castle, DE) at 25° C. and a nitrogen flow rate of 200 mL/min. […] This was followed by a progressive decrease in RH in decrements of 10% back to 0% RH, using the same protocol.

In the case of `C[C@@H]1Cc2c([nH]c3ccccc23)[C@@H](c2c(F)cc(NC3CN(CCCF)C3)cc2F)N1CC(F)(F)CO` [Compound B Form B], the “Hygroscopicity at 95% RH” value was under 1%.

Reference: patent publication US11780834B2, “Solid forms of 3-((1R,3R)-1-(2,6-difluoro-4-((1-(3-fluoropropyl)azetidin-3-yl)amino)phenyl)-3-methyl-1,3,4,9-tetrahydro-2H-pyrido[3,4-b]indol-2-yl)-2,2-difluoropropan-1-ol and processes for preparing fused tricyclic compounds comprising a substituted phenyl or pyridinyl moiety, including methods …” (Hoffmann-La Roche Inc., priority 2018, dated 2023)
